Test results reported in paper PMC6516182.

Key:
[1] = biological target: GST-fused KIN-4 PDZ domain (C. elegans); experiment: pull-down; GST pull-down; GST-fused KIN-4 fragments or PDZ domain as bait, HA- or FLAG-tagged DAF-18 as prey; details in the Supporting Information
FLAG-KIN-4 (C. elegans) = experiment: co-IP; HEK293T cells; FLAG-KIN-4 immunoprecipitated, HA-DAF-18 detected by immunoblotting
[2] = biological target: GST-fused N-terminal KIN-4 fragment [N] (C. elegans); experiment: pull-down; GST pull-down; GST-fused KIN-4 fragments or PDZ domain as bait, HA- or FLAG-tagged DAF-18 as prey; details in the Supporting Information
[3] = biological target: GST-fused PDZ domain-containing KIN-4 C-terminal fragment [C] (C. elegans); experiment: as above
[4] = biological target: GST-fused kinase domain-containing KIN-4 middle fragment [Mid] (C. elegans); experiment: as above

Row | binding [1] | binding (FLAG-KIN-4 (C. elegans)) | binding [2] | binding [3] | binding [4] | Binder
1 | binds weakly | – | – | – | – | FLAG-DAF-18 Δ4C (domain or fragment, UniProt G5EE01 1-958) MVTPPPDVPSTSTRSMARDLQENPNRQPGEPRVSEPYHNSIVERIRHIFRTAVSSNRCRTEYQNIDLDCAYITDRIIAIGYPATGIEANFRNSKVQTQQFLTRRHGKGNVKVFNLRGGYYYDADNFDGNVICFDMTDHHPPSLELMAPFCREAKEWLEADDKHVIAVHCKAGKGRTGVMICALLIYINFYPSPRQILDYYSIIRTKNNKGVTIPSQRRYIYYYHKLRERELNYLPLRMQLIGVYVERPPKTWGGGSKIKVEVGNGSTILFKPDPLIISKSNHQRERATWLNNCDTPNEFDTGEQKYHGFVSKRAYCFMVPEDAPVFVEGDVRIDIREIGFLKKFSDGKIGHVWFNTMFACDGGLNGGHFEYVDKTQPYIGDDTSIGRKNGMRRNETPMRKIDPETGNEFESPWQIVNPPGLEKHITEEQAMENYTNYGMIPPRYTISKILHEKHEKGIVKDDYNDRKLPMGDKSYTESGKSGDIRGVGGPFEIPYKAEEHVLTFPVYEMDRALKSKDLNNGMKLHVVLRCVDTRDSKMMEKSEVFGNLAFHNESTRRLQALTQMNPKWRPEPCAFGSKGAEMHYPPSVRYSSNDGKYNGACSENLVSDFFEHRNIAVLNRYCRYFYKQRSTSRSRYPRKFRYCPLIKKHFYIPADTDDVDENGQPFFHSPEHYIKEQEKIDAEKAAKGIENTGPSTSGSSAPGTIKKTEASQSDKVKPATEDELPPARLPDNVRRFPVVGVDFENPEEESCEHKTVESIAGFEPLEHLFHESYHPNTAGNMLRQDYHTDSEVKIAEQEAKAFVDQLLNGQGVLQEFMKQFKVPSDNSFADYVTGQAEVFKAQIALLEQSEDFQRVQANAEEVDLEHTLGEAFERFGHVVEESNGSSKNPKALKTREQMVKETGKDTQKTRNHVLLHLEANHRVQIERRETCPELHPEDKIPRIAHFSENSFSDSNFDQ
2 | – | binds | no binding | binds | no binding | HA-DAF-18 (protein, UniProt G5EE01 1-962) MVTPPPDVPSTSTRSMARDLQENPNRQPGEPRVSEPYHNSIVERIRHIFRTAVSSNRCRTEYQNIDLDCAYITDRIIAIGYPATGIEANFRNSKVQTQQFLTRRHGKGNVKVFNLRGGYYYDADNFDGNVICFDMTDHHPPSLELMAPFCREAKEWLEADDKHVIAVHCKAGKGRTGVMICALLIYINFYPSPRQILDYYSIIRTKNNKGVTIPSQRRYIYYYHKLRERELNYLPLRMQLIGVYVERPPKTWGGGSKIKVEVGNGSTILFKPDPLIISKSNHQRERATWLNNCDTPNEFDTGEQKYHGFVSKRAYCFMVPEDAPVFVEGDVRIDIREIGFLKKFSDGKIGHVWFNTMFACDGGLNGGHFEYVDKTQPYIGDDTSIGRKNGMRRNETPMRKIDPETGNEFESPWQIVNPPGLEKHITEEQAMENYTNYGMIPPRYTISKILHEKHEKGIVKDDYNDRKLPMGDKSYTESGKSGDIRGVGGPFEIPYKAEEHVLTFPVYEMDRALKSKDLNNGMKLHVVLRCVDTRDSKMMEKSEVFGNLAFHNESTRRLQALTQMNPKWRPEPCAFGSKGAEMHYPPSVRYSSNDGKYNGACSENLVSDFFEHRNIAVLNRYCRYFYKQRSTSRSRYPRKFRYCPLIKKHFYIPADTDDVDENGQPFFHSPEHYIKEQEKIDAEKAAKGIENTGPSTSGSSAPGTIKKTEASQSDKVKPATEDELPPARLPDNVRRFPVVGVDFENPEEESCEHKTVESIAGFEPLEHLFHESYHPNTAGNMLRQDYHTDSEVKIAEQEAKAFVDQLLNGQGVLQEFMKQFKVPSDNSFADYVTGQAEVFKAQIALLEQSEDFQRVQANAEEVDLEHTLGEAFERFGHVVEESNGSSKNPKALKTREQMVKETGKDTQKTRNHVLLHLEANHRVQIERRETCPELHPEDKIPRIAHFSENSFSDSNFDQAIYL
3 | binds | – | – | – | – | FLAG-tagged full-length DAF-18, wild type (protein, UniProt G5EE01 1-962) MVTPPPDVPSTSTRSMARDLQENPNRQPGEPRVSEPYHNSIVERIRHIFRTAVSSNRCRTEYQNIDLDCAYITDRIIAIGYPATGIEANFRNSKVQTQQFLTRRHGKGNVKVFNLRGGYYYDADNFDGNVICFDMTDHHPPSLELMAPFCREAKEWLEADDKHVIAVHCKAGKGRTGVMICALLIYINFYPSPRQILDYYSIIRTKNNKGVTIPSQRRYIYYYHKLRERELNYLPLRMQLIGVYVERPPKTWGGGSKIKVEVGNGSTILFKPDPLIISKSNHQRERATWLNNCDTPNEFDTGEQKYHGFVSKRAYCFMVPEDAPVFVEGDVRIDIREIGFLKKFSDGKIGHVWFNTMFACDGGLNGGHFEYVDKTQPYIGDDTSIGRKNGMRRNETPMRKIDPETGNEFESPWQIVNPPGLEKHITEEQAMENYTNYGMIPPRYTISKILHEKHEKGIVKDDYNDRKLPMGDKSYTESGKSGDIRGVGGPFEIPYKAEEHVLTFPVYEMDRALKSKDLNNGMKLHVVLRCVDTRDSKMMEKSEVFGNLAFHNESTRRLQALTQMNPKWRPEPCAFGSKGAEMHYPPSVRYSSNDGKYNGACSENLVSDFFEHRNIAVLNRYCRYFYKQRSTSRSRYPRKFRYCPLIKKHFYIPADTDDVDENGQPFFHSPEHYIKEQEKIDAEKAAKGIENTGPSTSGSSAPGTIKKTEASQSDKVKPATEDELPPARLPDNVRRFPVVGVDFENPEEESCEHKTVESIAGFEPLEHLFHESYHPNTAGNMLRQDYHTDSEVKIAEQEAKAFVDQLLNGQGVLQEFMKQFKVPSDNSFADYVTGQAEVFKAQIALLEQSEDFQRVQANAEEVDLEHTLGEAFERFGHVVEESNGSSKNPKALKTREQMVKETGKDTQKTRNHVLLHLEANHRVQIERRETCPELHPEDKIPRIAHFSENSFSDSNFDQAIYL
4 | binds weakly | – | – | – | – | FLAG-DAF-18 Δ12C (domain or fragment, UniProt G5EE01 1-950) MVTPPPDVPSTSTRSMARDLQENPNRQPGEPRVSEPYHNSIVERIRHIFRTAVSSNRCRTEYQNIDLDCAYITDRIIAIGYPATGIEANFRNSKVQTQQFLTRRHGKGNVKVFNLRGGYYYDADNFDGNVICFDMTDHHPPSLELMAPFCREAKEWLEADDKHVIAVHCKAGKGRTGVMICALLIYINFYPSPRQILDYYSIIRTKNNKGVTIPSQRRYIYYYHKLRERELNYLPLRMQLIGVYVERPPKTWGGGSKIKVEVGNGSTILFKPDPLIISKSNHQRERATWLNNCDTPNEFDTGEQKYHGFVSKRAYCFMVPEDAPVFVEGDVRIDIREIGFLKKFSDGKIGHVWFNTMFACDGGLNGGHFEYVDKTQPYIGDDTSIGRKNGMRRNETPMRKIDPETGNEFESPWQIVNPPGLEKHITEEQAMENYTNYGMIPPRYTISKILHEKHEKGIVKDDYNDRKLPMGDKSYTESGKSGDIRGVGGPFEIPYKAEEHVLTFPVYEMDRALKSKDLNNGMKLHVVLRCVDTRDSKMMEKSEVFGNLAFHNESTRRLQALTQMNPKWRPEPCAFGSKGAEMHYPPSVRYSSNDGKYNGACSENLVSDFFEHRNIAVLNRYCRYFYKQRSTSRSRYPRKFRYCPLIKKHFYIPADTDDVDENGQPFFHSPEHYIKEQEKIDAEKAAKGIENTGPSTSGSSAPGTIKKTEASQSDKVKPATEDELPPARLPDNVRRFPVVGVDFENPEEESCEHKTVESIAGFEPLEHLFHESYHPNTAGNMLRQDYHTDSEVKIAEQEAKAFVDQLLNGQGVLQEFMKQFKVPSDNSFADYVTGQAEVFKAQIALLEQSEDFQRVQANAEEVDLEHTLGEAFERFGHVVEESNGSSKNPKALKTREQMVKETGKDTQKTRNHVLLHLEANHRVQIERRETCPELHPEDKIPRIAHFSENS

No constants are given. Whether binding was seen depends on the method and setting. Binding seen in cells or lysates may run through a third protein. For some of these results: Binding calls can cover weak binding; strength is not graded here. Tags and fused reporters may be left off the sequences shown.
